This is an account of results in PMC4263763, “Crystal Structure of Calcium Binding Protein-5 from Entamoeba histolytica and Its Involvement in Initiation of Phagocytosis of Human Erythrocytes” (PLoS Pathogens, 2014).

By UniProt entry, the sequences of proteins in these tests, tags left out. Residues count along the entry.
UniProt P02769, residues 25-607: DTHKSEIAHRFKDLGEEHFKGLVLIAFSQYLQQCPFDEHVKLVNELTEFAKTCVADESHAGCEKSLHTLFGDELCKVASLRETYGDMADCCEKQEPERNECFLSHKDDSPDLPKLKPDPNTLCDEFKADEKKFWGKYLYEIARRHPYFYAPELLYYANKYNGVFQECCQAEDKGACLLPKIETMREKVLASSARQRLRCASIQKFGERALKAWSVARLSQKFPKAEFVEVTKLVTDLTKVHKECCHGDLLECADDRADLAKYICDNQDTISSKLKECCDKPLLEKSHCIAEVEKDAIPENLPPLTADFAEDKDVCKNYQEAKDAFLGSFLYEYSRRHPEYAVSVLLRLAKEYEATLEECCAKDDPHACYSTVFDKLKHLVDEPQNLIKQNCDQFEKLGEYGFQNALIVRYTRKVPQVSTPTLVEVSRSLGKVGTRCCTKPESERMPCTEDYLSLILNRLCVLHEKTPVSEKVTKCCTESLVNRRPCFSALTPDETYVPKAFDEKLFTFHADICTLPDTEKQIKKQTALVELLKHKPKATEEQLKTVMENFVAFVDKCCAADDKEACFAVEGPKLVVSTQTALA

For this assay, the target named is T1, IQ motif peptide of myosin 1B (native) (Entamoeba histolytica).
T1 sequence (peptide): IQKAWKGYRNRKR
Description: SPR; both purified. (Surface plasmon resonance follows binding to a sensor surface in real time, without labels.)

Results are given in words; binding and its absence hold for the method and conditions named. Where a sequence is shown, tags or fusion partners need not be part of it.

Take “bovine serum albumin (from UniProt P02769 25-607)”: the binding result is “no binding (tested: 750 nM)”.
